Values from PubChem BioAssay AID1671195 (Yale University, 2021).

Aim: 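Genes whose knockdown alters LDL uptake in liver cancer cells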 (primary screen)
System: human Huh7 hepatoma cells
Knock-down reagent: siRNA pool against human genes, 18 nM
Time to read-out: about 2 to 2.5 days of knockdown, then 8 h LDL uptake
Treatment: DiI-labelled LDL at 30 µg/ml for 8 h, in lipoprotein-deficient serum medium
Measured: 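Fluorescent LDL signal imaged in cells, scaled to the plate median, robust z-score for each replicate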
Scale: robust z-score: higher = more LDL uptake after knockdown
Rule for the call: 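Active when two or more replicates show a robust z-score above 2 or below -2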
The whole screen tested about 22,000 reagents; below is a part drawn at random. About 1,510 of them (6.9%) were called active. 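Active includes knockdowns raising or lowering LDL uptake; positive z-scores mean more uptake, negative mean less.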

With knock-down of SLC60A2 the results were robust z-score, replicate 1 = -0.791; robust z-score, replicate 2 = -0.406; robust z-score, replicate 3 = -0.912; inactive.
Depletion of PRSS47P gave: robust z-score, replicate 1 = -0.445; robust z-score, replicate 2 = -0.677; robust z-score, replicate 3 = -0.19; inactive.
LOC389039 (retired record) scored robust z-score, replicate 1 = 0.352; robust z-score, replicate 2 = 0.943; robust z-score, replicate 3 = 0.291; inactive.
Knock-down of OR8D2 resulted in: robust z-score, replicate 1 = -0.664; robust z-score, replicate 2 = -0.545; robust z-score, replicate 3 = -0.697; inactive.
ZNF883 showed robust z-score, replicate 1 = -0.0623; robust z-score, replicate 2 = -0.0781; robust z-score, replicate 3 = 0.896; inactive.
Knock-down of KAAG1 gave: robust z-score, replicate 1 = 2.22; robust z-score, replicate 2 = 1.94; robust z-score, replicate 3 = 2.38; active.
With knock-down of LINC00934, the record shows robust z-score, replicate 1 = 2.61; robust z-score, replicate 2 = 1.48; robust z-score, replicate 3 = 2.51; active.
Knock-down of EPB41L3 resulted in: robust z-score, replicate 1 = -0.884; robust z-score, replicate 2 = -1.37; robust z-score, replicate 3 = -0.894; inactive.
After knock-down of AKAP13, the record shows robust z-score, replicate 1 = 0.764; robust z-score, replicate 2 = 0.421; robust z-score, replicate 3 = 0.992; inactive.
Silencing of CD209 resulted in: robust z-score, replicate 1 = -0.696; robust z-score, replicate 2 = -0.138; robust z-score, replicate 3 = -1.53; inactive.
Against NBPF17P the deposit lists robust z-score, replicate 1 = 0.0988; robust z-score, replicate 2 = 0.651; robust z-score, replicate 3 = 0.161; inactive.
With knock-down of IFNB1, the record shows robust z-score, replicate 1 = 2.25; robust z-score, replicate 2 = 2.64; robust z-score, replicate 3 = 2.64; active.
For DCPS, the values are robust z-score, replicate 1 = 2.42; robust z-score, replicate 2 = 0.198; robust z-score, replicate 3 = 1.64; inactive.
SLC1A2 gave robust z-score, replicate 1 = -0.118; robust z-score, replicate 2 = -0.69; robust z-score, replicate 3 = -0.433; inactive.
With knock-down of SRSF6, the screen gave robust z-score, replicate 1 = -1.05; robust z-score, replicate 2 = -1.31; robust z-score, replicate 3 = -0.531; inactive.
Silencing of CDKN2C resulted in: robust z-score, replicate 1 = 0.19; robust z-score, replicate 2 = -0.645; robust z-score, replicate 3 = -0.589; inactive.
